Source: PubChem BioAssay AID504749 (NCATS, 2011).

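A panel of P. falciparum strains inside erythrocytes is exposed to compounds for three days, then a DNA-binding dye reports the amount of parasite DNA.
Each compound was titrated across a series from about 0.000037 to 29 µM.
The number is the fitted AC50, the concentration giving a half-maximal change in signal; a lower value means higher potency, whether the curve shows a decrease or an increase.
Calls follow the curve class and fit quality: every row here is inconclusive, covering signal-raising curves and weak, poorly fitted, partial or highest-dose-only inhibition curves.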

Values are in µM.
All entries here are filed as inconclusive.
These entries are mostly ones the record files as inconclusive; other results of the assay are not listed here.
A potency from a partial, single-point or poor curve is only a rough figure.
Some entries filed as inconclusive have a full curve.
The first word of each remark tells which way the curve ran; it can be opposite to the aim of the assay.

| # | SMILES | tested on / at | fitted potency (µM) | remark |
|---|---|---|---|---|
| 1 | `CCN(CCCc1ccccc1)CCCc1ccccc1` | DIV30 | 2.558 | inhibitor, partial curve, poor fit |
| 2 | `CCN(CCCc1ccccc1)CCCc1ccccc1` | CP286 | 3.162 | inhibitor, partial curve |
| 3 | `CCN(CCCc1ccccc1)CCCc1ccccc1` | DIV14 | 3.612 | inhibitor, partial curve, poor fit |
| 4 | `CCN(CCCc1ccccc1)CCCc1ccccc1` | CP269 | 7.208 | inhibitor, partial curve, poor fit |
| 5 | `CCN(CCCc1ccccc1)CCCc1ccccc1` | CP297 | 0.9074 | inhibitor, partial curve, poor fit |
| 6 | `CCN(CCCc1ccccc1)CCCc1ccccc1` | DIV17 | 0.0072 | inhibitor, full curve, poor fit |
| 7 | `CCN(CCCc1ccccc1)CCCc1ccccc1` | CP325 | 2.869 | inhibitor, partial curve, poor fit |
| 8 | `CCN(CCCc1ccccc1)CCCc1ccccc1` | TAB113 | 3.981 | inhibitor, single point |
| 9 | `CCN(CCCc1ccccc1)CCCc1ccccc1` | N140 | 4.467 | inhibitor, partial curve |
| 10 | `COc1ccc(C(Cl)=C(c2ccc(OC)cc2)c2ccc(OC)cc2)cc1` | DIV14 | 16.94 | inhibitor, single point |
| 11 | `COc1ccc(C(Cl)=C(c2ccc(OC)cc2)c2ccc(OC)cc2)cc1` | CP260 | 14.13 | inhibitor, single point |
| 12 | `COc1ccc(C(Cl)=C(c2ccc(OC)cc2)c2ccc(OC)cc2)cc1` | CP247 | 10 | inhibitor, single point |
| 13 | `COc1ccc(C(Cl)=C(c2ccc(OC)cc2)c2ccc(OC)cc2)cc1` | CP252 | 10 | inhibitor, single point |
| 14 | `COc1ccc(C(Cl)=C(c2ccc(OC)cc2)c2ccc(OC)cc2)cc1` | CP237 | 17.78 | inhibitor, single point |
| 15 | `COc1ccc(C(Cl)=C(c2ccc(OC)cc2)c2ccc(OC)cc2)cc1` | Dd2 | 10 | inhibitor, single point |
| 16 | `COc1ccc(C(Cl)=C(c2ccc(OC)cc2)c2ccc(OC)cc2)cc1` | JCK | 10 | inhibitor, single point |
| 17 | `COc1ccc(C(Cl)=C(c2ccc(OC)cc2)c2ccc(OC)cc2)cc1` | CP256 | 17.78 | inhibitor, single point |
| 18 | `COc1ccc(C(Cl)=C(c2ccc(OC)cc2)c2ccc(OC)cc2)cc1` | FAB9 | 17.78 | inhibitor, single point |
| 19 | `COc1ccc(C(Cl)=C(c2ccc(OC)cc2)c2ccc(OC)cc2)cc1` | W2 | 13.46 | inhibitor, single point |
| 20 | `COc1ccc(C(Cl)=C(c2ccc(OC)cc2)c2ccc(OC)cc2)cc1` | CP335 | 19.01 | inhibitor, single point |
| 21 | `COc1ccc(C(Cl)=C(c2ccc(OC)cc2)c2ccc(OC)cc2)cc1` | CP305 | 19.01 | inhibitor, single point |
| 22 | `COc1ccc(C(Cl)=C(c2ccc(OC)cc2)c2ccc(OC)cc2)cc1` | CP268 | 19.01 | inhibitor, single point |
| 23 | `COc1ccc(C(Cl)=C(c2ccc(OC)cc2)c2ccc(OC)cc2)cc1` | SC27B | 17.78 | inhibitor, single point |
| 24 | `CCc1c(C)[nH]c2c1C(=O)[C@H](CN1CCOCC1)CC2` | CP203 | 0.0014 | activator, full curve, poor fit |
| 25 | `CCCCCCCCCCCCCCCCCCCCCC(=O)Nc1ccn([C@@H]2O[C@H](CO)[C@@H](O)[C@@H]2O)c(=O)n1` | ICS | 1.585 | inhibitor, full curve, poor fit |
| 26 | `CCCCCCCCCCCCCCCCCCCCCC(=O)Nc1ccn([C@@H]2O[C@H](CO)[C@@H](O)[C@@H]2O)c(=O)n1` | W2 | 0.0107 | inhibitor, full curve, poor fit |
| 27 | `CCCCCCCCCCCCCCCCCCCCCC(=O)Nc1ccn([C@@H]2O[C@H](CO)[C@@H](O)[C@@H]2O)c(=O)n1` | GB4 | 0.0038 | activator, full curve |
| 28 | `CC1(C)C(C=C(Cl)Cl)C1C(=O)OCc1cccc(Oc2ccccc2)c1` (centres undefined) | W2 | 10.69 | inhibitor, partial curve, poor fit |
| 29 | `S=C=Nc1ccc(N=C=S)cc1` | CP266 | 0.0675 | inhibitor, full curve, poor fit |
| 30 | `S=C=Nc1ccc(N=C=S)cc1` | W2 | 0.0085 | inhibitor, full curve, poor fit |
| 31 | `CCCCOc1cc(C(=O)NCCN(CC)CC)c2ccccc2n1` | ICS | 5.623 | inhibitor, single point |
| 32 | `CCCCOc1cc(C(=O)NCCN(CC)CC)c2ccccc2n1` | CP262 | 8.087 | inhibitor, single point |
| 33 | `CCCCOc1cc(C(=O)NCCN(CC)CC)c2ccccc2n1` | 7G8 | 3.548 | inhibitor, single point |
| 34 | `CCCCOc1cc(C(=O)NCCN(CC)CC)c2ccccc2n1` | DIV14 | 9.074 | inhibitor, partial curve, poor fit |
| 35 | `CCCCOc1cc(C(=O)NCCN(CC)CC)c2ccccc2n1` | W2 | 8.087 | inhibitor, single point |
| 36 | `CCCCOc1cc(C(=O)NCCN(CC)CC)c2ccccc2n1` | CP191 | 10 | inhibitor, single point |
| 37 | `CCCCOc1cc(C(=O)NCCN(CC)CC)c2ccccc2n1` | GB4 | 4.053 | inhibitor, partial curve, poor fit |
| 38 | `CCCCOc1cc(C(=O)NCCN(CC)CC)c2ccccc2n1` | CP266 | 0.0003 | inhibitor |

Repeated from the top, 4 entries:

| SMILES | tested on / at | fitted potency (µM) | remark |
|---|---|---|---|
| `CCN(CCCc1ccccc1)CCCc1ccccc1` | DIV30 | 2.558 | inhibitor, partial curve, poor fit |
| `CCN(CCCc1ccccc1)CCCc1ccccc1` | CP286 | 3.162 | inhibitor, partial curve |
| `CCN(CCCc1ccccc1)CCCc1ccccc1` | DIV14 | 3.612 | inhibitor, partial curve, poor fit |
| `CCN(CCCc1ccccc1)CCCc1ccccc1` | CP269 | 7.208 | inhibitor, partial curve, poor fit |